# Measurements: US6541509B2 (priority 2000, dated 2003)
# Experiments:
# [1] = system: A549; experiment: cells; type: cell-based; conditions: Homo sapiens, A549, 72 h, read-out: IC50 (drug concentration that inhibits cell division by 50%)
# Protocol: (§1) The drug-sensitive mouse macrophage-like cell line, J774.2, and its Taxol-resistant cell line, J7-T3-1.6, were maintained as previously described. […] Drug-sensitive and vinblastine-resistant human ovarian carcinoma cell lines, SKOV3 and SKVLB, were obtained from Dr. V. Ling, and were maintained as previously described. Both J7-T3-1.6 and SKVLB cells overexpress P-glycoprotein. SKVLB cells were grown in the presence of 1 μM vinblastine. The Taxol-resistant human non-small-cell lung carcinoma cell line, A549-T12, was derived from the drug-sensitive A549 cell line; both cell lines were maintained as previously described.
# For the A549 cell lines, cells were seeded at a density of 1×10^4 cells/mL (A549) or 3×10^4 cells/mL (A549-T12), in triplicate, 6-well plates, and allowed to attach for 24 h. […] The SKOV3 and SKVLB cell lines were assayed in a similar manner. Cells were seeded in triplicate, at a density of 6×10^3 cells/mL (SKOV3) or 12×10^3 cells/mL (SKVLB), in 6-well plates, and incubated with a drug for 6 days. […] J774.2 and J7-T3-1.6 cells were plated at a density of 2×10^4 cells/well, in 96-well plates, and allowed to attach overnight. Serial dilutions of each drug were performed, and the cells were incubated for 72 h. The IC50 was determined using the CellTiter 96™ AQueous nonradioactive cell proliferation assay (Promega, Madison, Wis.), which correlates with the number of live cells. […]
# [2] = system: A549-T12; experiment: cells; type: cell-based, human; conditions: 72 h
# Protocol: as §1
# For the A549 cell lines, cells were seeded at a density of 1×10^4 cells/mL (A549) or 3×10^4 cells/mL (A549-T12), in triplicate, 6-well plates, and allowed to attach for 24 h. […] The SKOV3 and SKVLB cell lines were assayed in a similar manner. Cells were seeded in triplicate, at a density of 6×10^3 cells/mL (SKOV3) or 12×10^3 cells/mL (SKVLB), in 6-well plates, and incubated with a drug for 6 days. […] J774.2 and J7-T3-1.6 cells were plated at a density of 2×10^4 cells/well, in 96-well plates, and allowed to attach overnight. Serial dilutions of each drug were performed, and the cells were incubated for 72 h. The IC50 was determined using the CellTiter 96™ AQueous nonradioactive cell proliferation assay (Promega, Madison, Wis.), which correlates with the number of live cells. Different methods for determining IC50 values were used, depending on the most accurate method for each particular set of cell lines.
smiles,measurement,setting,value
"COc1cc2c(c(OC)c1OC)-c1ccc(OC)c(=O)cc1[C@@H](NC(C)=O)CC2 [CLC, colchicine]",IC50,[1],33 nM
same,Fold resistance (ratio of IC50 A549-T12 to A549),[2],1.0 fold
same,Fold resistance (ratio of IC50 A549-T12 to A549),[2]; listed as colchicine,no cross-resistance
same,IC50,"[2]; Homo sapiens, read-out: IC50 (drug concentration that inhibits cell division by 50%)",33 ± 12.7 nM
